The other results are listed elsewhere or left out. The data scatter; read single values as rough.
Biological target: T1, SUN1 C63 (UniProt O94901)
T1 sequence (whole entry): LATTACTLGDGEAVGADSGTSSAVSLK
Test: log2 mean competition ratio of IA-DTB cysteine labelling (DMSO/compound) (log2 ratio); higher = stronger cysteine engagement by compound
Conditions: 50 µM; treatment time: 4 h; cell line lysate: HEK293T
Method: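 IA-DTB competitive cysteine chemoproteomics in HEK293T RIPA lysate. Lysates were treated with compound 29 or 30 at 50 or 200 µM for 4 h, then IA-DTB (500 µM, 1 h), trypsin-digested, NeutrAvidin-enriched and analysed by diaPASEF. Competition ratio = intensity DMSO / intensity compound (n=4 treated, n=64 DMSO); binding: mean log2 CR ≥ 1 and p ≤ 0.05 plus QC filters. Target is the cysteine site.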

The chains behind the UniProt entries cited, without tags or fusion partners. Where a name states a change or a piece, a line headed by the entry shows the natural chain unless it says otherwise.
UniProt O94901: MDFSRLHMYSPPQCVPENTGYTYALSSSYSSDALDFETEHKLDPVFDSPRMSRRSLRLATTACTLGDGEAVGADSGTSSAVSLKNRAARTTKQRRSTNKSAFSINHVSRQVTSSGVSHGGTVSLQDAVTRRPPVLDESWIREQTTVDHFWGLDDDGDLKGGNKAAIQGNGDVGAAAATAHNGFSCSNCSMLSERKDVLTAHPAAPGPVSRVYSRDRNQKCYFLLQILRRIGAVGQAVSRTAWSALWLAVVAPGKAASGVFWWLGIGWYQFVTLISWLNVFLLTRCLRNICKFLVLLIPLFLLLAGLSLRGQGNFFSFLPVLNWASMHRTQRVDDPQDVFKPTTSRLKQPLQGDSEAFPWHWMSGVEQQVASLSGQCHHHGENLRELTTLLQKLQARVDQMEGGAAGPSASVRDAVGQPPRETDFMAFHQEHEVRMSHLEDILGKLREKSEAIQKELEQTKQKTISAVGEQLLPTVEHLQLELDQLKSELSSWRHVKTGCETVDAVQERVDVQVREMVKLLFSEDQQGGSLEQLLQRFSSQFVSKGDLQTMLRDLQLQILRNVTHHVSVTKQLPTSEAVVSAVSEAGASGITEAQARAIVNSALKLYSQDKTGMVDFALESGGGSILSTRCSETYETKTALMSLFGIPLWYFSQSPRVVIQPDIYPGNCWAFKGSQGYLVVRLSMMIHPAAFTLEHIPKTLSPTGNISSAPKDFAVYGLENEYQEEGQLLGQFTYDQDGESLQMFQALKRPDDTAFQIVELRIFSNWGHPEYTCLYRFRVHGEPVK

Row | SMILES | log2 mean competition ratio
1 | O=C(CCl)N[C@@H]1CCCc2ccccc21 | -0.231
2 | O=C(CCl)N[C@H]1CCCc2ccccc21 | 0.15

Same assay, conditions: 200 µM; treatment time: 4 h; cell line lysate: HEK293T

Row | SMILES | log2 mean competition ratio
3 | O=C(CCl)N[C@@H]1CCCc2ccccc21 | -0.528
4 | O=C(CCl)N[C@H]1CCCc2ccccc21 | -0.319

— the supplement of paper PMC11732987, “Enantioselective OTUD7B fragment discovery through chemoproteomics screening and high-throughput optimisation” (Communications Chemistry, 2025)
